# Test results as given in patent publication US20170189504A1, “NOVEL PEPTIDES AND COMBINATION OF PEPTIDES FOR USE IN IMMUNOTHERAPY AGAINST VARIOUS CANCERS” (immatics biotechnologies GmbH, priority 2015, published 2017).
# Key:
# HLA-A*02 = test: Identification and relative LC-MS quantitation of HLA-A*02-presented tumor-associated peptides on tissue samples (presentation profiles, Tables 13A, 13B, 15, FIG. 1); set-up: species or system human; key to Presentation score NHL / Presentation score CLL / Presentation score BRCA / Presentation score AML / Presentation score GB / Presentation score NSCLC / Presentation score GBC_CCC / Presentation score UEC / Presentation score MEL / Presentation score OSCAR / Presentation score GC / Presentation score UBC / Presentation score OC / Presentation score RCC / Presentation score CRC / Presentation score PCA / Presentation score HCC / Presentation score PC / Presentation score SCLC: specifically presented on tumors (++++); very highly over-presented on tumors compared to a panel of normal tissues (+++); highly over-presented on tumors compared to a panel of normal tissues (++); over-presented on tumors compared to a panel of normal tissues (+); details: for Presentation score NSCLC: non-small cell lung cancer (N = 90) vs panel of normal tissues (N = 262); for Peptide Presentation on cancer entities: Table 13A, HLA-A*02-binding tumor-associated peptides, cancer entities on which the peptide was found presented
# source genes (mRNA) [1] = test: Gene and exon expression of source genes, TCGA tumor samples compared with normal tissue samples (Lonsdale, 2013) (Table 17); set-up: species or system human; details: for Over-expression category of source gene (target coverage), BLCA: BLCA = Bladder urothelial carcinoma (N = 408); for Over-expression category of source gene (target coverage), BLCA / Over-expression category of source gene (target coverage), CHOL / Over-expression category of source gene (target coverage), COAD / Over-expression category of source gene (target coverage), DLBC / Over-expression category of source gene (target coverage), ESCA / Over-expression category of source gene (target coverage), GBM / Over-expression category of source gene (target coverage), KICH / Over-expression category of source gene (target coverage), KIRC / Over-expression category of source gene (target coverage), KIRP / Over-expression category of source gene (target coverage), LAML / Over-expression category of source gene (target coverage), LGG / Over-expression category of source gene (target coverage), LIHC / Over-expression category of source gene (target coverage), LUAD / Over-expression category of source gene (target coverage), LUSC / Over-expression category of source gene (target coverage), OV / Over-expression category of source gene (target coverage), PAAD / Over-expression category of source gene (target coverage), PRAD / Over-expression category of source gene (target coverage), READ / Over-expression category of source gene (target coverage), SKCM / Over-expression category of source gene (target coverage), STAD / Over-expression category of source gene (target coverage), UCEC: same cutoff; for Over-expression category of source gene (target coverage), BRCA: BRCA = Breast cancer (N = 1104), tumors more than 2-fold above highest 75% percentile of normal tissues; for Over-expression category of source gene (target coverage), CHOL: CHOL = Cholangiocarcinoma (N = 36); for Over-expression category of source gene (target coverage), COAD: COAD = Colon and rectal adenocarcinoma (N = 462); for Over-expression category of source gene (target coverage), DLBC: DLBC = Lymphoid neoplasm diffuse large B-cell lymphoma (N = 48); for Over-expression category of source gene (target coverage), ESCA: ESCA = Esophageal cancer (N = 185); for Over-expression category of source gene (target coverage), GBM: GBM = Glioblastoma multiforme (N = 169); for Over-expression category of source gene (target coverage), KICH: KICH = Kidney chromophobe (N = 66); for Over-expression category of source gene (target coverage), KIRC: KIRC = Clear cell kidney carcinoma (N = 534); for Over-expression category of source gene (target coverage), KIRP: KIRP = Papillary kidney carcinoma (N = 291); for Over-expression category of source gene (target coverage), LAML: LAML = Acute Myeloid Leukemia (N = 173); for Over-expression category of source gene (target coverage), LGG: LGG = Lower grade glioma (N = 534); for Over-expression category of source gene (target coverage), LIHC: LIHC = Liver hepatocellular carcinoma (N = 374); for Over-expression category of source gene (target coverage), LUAD: LUAD = Lung adenocarcinoma (N = 517); for Over-expression category of source gene (target coverage), LUSC: LUSC = Lung squamous cell carcinoma (N = 503); for Over-expression category of source gene (target coverage), OV: OV = Ovarian serous cystadenocarcinoma (N = 309); for Over-expression category of source gene (target coverage), PAAD: PAAD = Pancreatic ductal adenocarcinoma (N = 179); for Over-expression category of source gene (target coverage), PRAD: PRAD = Prostate adenocarcinoma (N = 498); for Over-expression category of source gene (target coverage), READ: READ = Colon and rectal adenocarcinoma (N = 167); for Over-expression category of source gene (target coverage), SKCM: SKCM = Skin cutaneous melanoma (N = 473); for Over-expression category of source gene (target coverage), STAD: STAD = Stomach adenocarcinoma (N = 415); for Over-expression category of source gene (target coverage), UCEC: UCEC = Uterine corpus endometrial carcinoma (N = 546)
# source genes (mRNA) [2] = test: Expression profiling of source genes by in-house RNASeq of tumor and normal tissues (Table 18, FIG. 2); set-up: species or system human; key: very highly over-expressed in tumors compared to a panel of normal tissues (+++); highly over-expressed in tumors compared to a panel of normal tissues (++); over-expressed in tumors compared to a panel of normal tissues (+); details: source gene of peptide; for Expression score BRCA: BRCA tumors vs panel of normal tissues; for Expression score NHL: non-Hodgkin lymphoma (N = 10) vs panel of normal tissues; for Expression score NSCLC: non-small cell lung cancer (N = 11) vs panel of normal tissues; for Expression score OC: ovarian cancer (N = 12) vs panel of normal tissues; for Expression score UEC: uterine cancer (N = 10) vs panel of normal tissues
Substance,Presentation score NSCLC (HLA-A*02; HLA-A*02 peptides),Peptide Presentation on cancer entities (HLA-A*02),"Over-expression category of source gene (target coverage), BLCA (source genes (mRNA) [1])","Over-expression category of source gene (target coverage), BRCA (source genes (mRNA) [1])","Over-expression category of source gene (target coverage), CHOL (source genes (mRNA) [1])","Over-expression category of source gene (target coverage), COAD (source genes (mRNA) [1])","Over-expression category of source gene (target coverage), DLBC (source genes (mRNA) [1])","Over-expression category of source gene (target coverage), ESCA (source genes (mRNA) [1])","Over-expression category of source gene (target coverage), GBM (source genes (mRNA) [1])","Over-expression category of source gene (target coverage), KICH (source genes (mRNA) [1])","Over-expression category of source gene (target coverage), KIRC (source genes (mRNA) [1])","Over-expression category of source gene (target coverage), KIRP (source genes (mRNA) [1])","Over-expression category of source gene (target coverage), LAML (source genes (mRNA) [1])","Over-expression category of source gene (target coverage), LGG (source genes (mRNA) [1])","Over-expression category of source gene (target coverage), LIHC (source genes (mRNA) [1])","Over-expression category of source gene (target coverage), LUAD (source genes (mRNA) [1])","Over-expression category of source gene (target coverage), LUSC (source genes (mRNA) [1])","Over-expression category of source gene (target coverage), OV (source genes (mRNA) [1])","Over-expression category of source gene (target coverage), UCEC (source genes (mRNA) [1])",Expression score UEC (source genes (mRNA) [2]),also measured
241: peptide found in HEATR1 (gene looked up) (KTIQQLETV; listed as Homo sapiens) [compound 241],++++,"NSCLC, OC, NHL",A (>=50% of tumors above the cutoff),A (>=50% of tumors above the cutoff),A (>=50% of tumors above the cutoff),A (>=50% of tumors above the cutoff),A (>=50% of tumors above the cutoff),A (>=50% of tumors above the cutoff),A (>=50% of tumors above the cutoff),A (>=50% of tumors above the cutoff),A (>=50% of tumors above the cutoff),A (>=50% of tumors above the cutoff),A (>=50% of tumors above the cutoff),A (>=50% of tumors above the cutoff),A (>=50% of tumors above the cutoff),A (>=50% of tumors above the cutoff),A (>=50% of tumors above the cutoff),A (>=50% of tumors above the cutoff),A (>=50% of tumors above the cutoff),+,"Presentation score NHL (HLA-A*02; HLA-A*02 peptides, non-Hodgkin lymphoma (N = 18) vs panel of normal tissues (N = 262)): ++++; Presentation score OC (HLA-A*02; HLA-A*02 peptides, ovarian cancer (N = 20) vs panel of normal tissues (N = 262)): ++++; Over-expression category of source gene (target coverage), PAAD (source genes (mRNA) [1]): A (>=50% of tumors above the cutoff); Over-expression category of source gene (target coverage), PRAD (source genes (mRNA) [1]): A (>=50% of tumors above the cutoff); Over-expression category of source gene (target coverage), READ (source genes (mRNA) [1]): A (>=50% of tumors above the cutoff); Over-expression category of source gene (target coverage), SKCM (source genes (mRNA) [1]): A (>=50% of tumors above the cutoff); Over-expression category of source gene (target coverage), STAD (source genes (mRNA) [1]): A (>=50% of tumors above the cutoff); Expression score BRCA (source genes (mRNA) [2]): +; Expression score OSCAR (source genes (mRNA) [2]; esophageal cancer incl. gastric-esophageal junction (N = 11) vs panel of normal tissues): +; Expression score NHL (source genes (mRNA) [2]): +; Expression score NSCLC (source genes (mRNA) [2]): +; Expression score OC (source genes (mRNA) [2]): +; Expression score SCLC (source genes (mRNA) [2]; small cell lung cancer (N = 10) vs panel of normal tissues): +"
242: peptide found in BCAT1 (gene looked up) (WLYGEDHQI; listed as Homo sapiens) [compound 242],++++,"NSCLC, UEC, AML",,,,,"C (>=5% of tumors above the cutoff, but <20%)",,"B (>= 20% of tumors above the cutoff, but <50%)",,,,"B (>= 20% of tumors above the cutoff, but <50%)",,,"C (>=5% of tumors above the cutoff, but <20%)","C (>=5% of tumors above the cutoff, but <20%)","B (>= 20% of tumors above the cutoff, but <50%)","B (>= 20% of tumors above the cutoff, but <50%)",+++,"Presentation score AML (HLA-A*02; HLA-A*02 peptides, acute myeloid leukemia (N = 18) vs panel of normal tissues (N = 262)): ++++; Presentation score UEC (HLA-A*02; HLA-A*02 peptides, uterine cancer (N = 15) vs panel of normal tissues (N = 262)): ++++; Expression score GB (source genes (mRNA) [2]; glioblastoma (N = 24) vs panel of normal tissues): ++; Expression score NHL (source genes (mRNA) [2]): ++; Expression score NSCLC (source genes (mRNA) [2]): ++; Expression score OC (source genes (mRNA) [2]): +++"
246: peptide found in COG2 (gene looked up) (TVSDVLNSV; listed as Homo sapiens) [compound 246],++++,"GB, NSCLC, CLL",A (>=50% of tumors above the cutoff),A (>=50% of tumors above the cutoff),A (>=50% of tumors above the cutoff),A (>=50% of tumors above the cutoff),A (>=50% of tumors above the cutoff),A (>=50% of tumors above the cutoff),A (>=50% of tumors above the cutoff),"C (>=5% of tumors above the cutoff, but <20%)",A (>=50% of tumors above the cutoff),A (>=50% of tumors above the cutoff),A (>=50% of tumors above the cutoff),A (>=50% of tumors above the cutoff),"B (>= 20% of tumors above the cutoff, but <50%)",A (>=50% of tumors above the cutoff),A (>=50% of tumors above the cutoff),A (>=50% of tumors above the cutoff),A (>=50% of tumors above the cutoff),+,"Presentation score CLL (HLA-A*02; HLA-A*02 peptides, chronic lymphocytic leukemia (N = 17) vs panel of normal tissues (N = 262)): ++++; Presentation score GB (HLA-A*02; HLA-A*02 peptides, glioblastoma (N = 41) vs panel of normal tissues (N = 262)): ++++; Over-expression category of source gene (target coverage), PAAD (source genes (mRNA) [1]): A (>=50% of tumors above the cutoff); Over-expression category of source gene (target coverage), PRAD (source genes (mRNA) [1]): A (>=50% of tumors above the cutoff); Over-expression category of source gene (target coverage), READ (source genes (mRNA) [1]): A (>=50% of tumors above the cutoff); Over-expression category of source gene (target coverage), SKCM (source genes (mRNA) [1]): A (>=50% of tumors above the cutoff); Over-expression category of source gene (target coverage), STAD (source genes (mRNA) [1]): A (>=50% of tumors above the cutoff); Expression score BRCA (source genes (mRNA) [2]): +"

# For some assays here: For expression read-outs the peptide stands for its source gene, whose mRNA was measured; the gene is not named for every peptide.
